PubChem BioAssay AID1508597, Cure First | 2020

Aim: 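Survival screen with siRNA in ovarian cancer cells derived from patients, with or without rucaparib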 (primary screen)
System: human ovarian carcinoma lines grown from tumours: OCI-P5x (papillary serous) and OCI-C5x (clear cell)
Knock-down reagent: siRNA pool against human genes, 1.25 pmol siRNA per well
Duration: 72 h or 96 h, depending on the cell culture
Treatment: rucaparib 20 µM (about IC30) or vehicle, present until read-out
Rucaparib or vehicle: Rucaparib
Cell line: OCI-P5x (serous)
Detection: 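Luminescent ATP-based viability assay read 72 or 96 h after transfection, depending on culture, given as normalised percent viability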
Reading the numbers: viability, normalised: higher = more viable cells remaining
Active means: 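Active when normalised viability falls below 80 percent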
Calls: active = viability under 80%; inactive = viability 80% or more
This is an unselected part of the about 2,100 reagents, under one of the conditions tested. 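Calls flag viability under 80% in either arm, not effects specific to rucaparib; the reference for percent is not stated.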 Unmarked entries are inactive. The numbers tell different reagents against one gene apart. Some reagents were tested in more than one well and are listed for each. The record does not give: the 100% reference.

Target gene	pool no.	technical replicate	viability, normalised (%)
PHF11	1	1	40.8 (active)
PHF11	1	2	46.3 (active)
PHF11	1	3	44.1 (active)
DLG4	1	1	104
DLG4	1	1	52.1 (active)
DLG4	1	2	64.8 (active)
DLG4	1	2	83
DLG4	1	3	66.6 (active)
DLG4	1	3	62.1 (active)
PARP14	1	1	43.1 (active)
PARP14	1	2	55.6 (active)
PARP14	1	3	47.3 (active)
UBR5	1	1	83.6
UBR5	1	2	75.5 (active)
UBR5	1	3	60.9 (active)
UBTF	1	1	51.2 (active)
UBTF	1	2	47.7 (active)
UBTF	1	3	74.6 (active)
SMPD2	1	1	87.9
SMPD2	1	2	86.2
SMPD2	1	3	86.7
JUN	1	1	70.6 (active)
JUN	1	2	65.2 (active)
JUN	1	3	63 (active)
RUVBL2	1	1	72.7 (active)
RUVBL2	1	1	49.5 (active)
RUVBL2	1	2	51.1 (active)
RUVBL2	1	2	90.7
RUVBL2	1	3	49.8 (active)
RUVBL2	1	3	96.4
PRDM14	1	1	37.5 (active)
PRDM14	1	2	37.9 (active)
PRDM14	1	3	48.7 (active)
NME8	1	1	57.1 (active)
NME8	1	1	85.4
NME8	1	2	59.5 (active)
NME8	1	2	65.2 (active)
NME8	1	3	51.7 (active)
NME8	1	3	61.2 (active)
REV1	1	1	101
REV1	1	1	44.1 (active)
REV1	1	2	48.9 (active)
REV1	1	2	85.6
REV1	1	3	70.8 (active)
REV1	1	3	46.9 (active)
EID1	1	1	68.5 (active)
EID1	1	2	69.5 (active)
EID1	1	3	74.3 (active)
RASSF7	1	1	69.6 (active)
RASSF7	1	2	94
RASSF7	1	3	88.9
EPHA5	1	1	120
EPHA5	1	2	119
EPHA5	1	3	111
TNNI3K	1	1	83.2
TNNI3K	1	2	68.4 (active)
TNNI3K	1	3	83.4
ADAM9	1	1	58.2 (active)
ADAM9	1	2	57.6 (active)
ADAM9	1	3	43.1 (active)
NME9	1	1	54.6 (active)
NME9	1	2	41.4 (active)
NME9	1	3	49 (active)
NME9	2	1	107
NME9	2	2	109
NME9	2	3	92.5
GSK3B	1	1	70.3 (active)
GSK3B	1	1	97
GSK3B	1	2	60.1 (active)
GSK3B	1	2	88.1
GSK3B	1	3	95.8
GSK3B	1	3	49.9 (active)
MAPKAPK2	1	1	77.4 (active)
MAPKAPK2	1	2	60.4 (active)
MAPKAPK2	1	3	63.1 (active)
